# Literature values in paper PMC7248311, “Bisphenol A Diglycidyl Ether (BADGE) and Bisphenol Analogs, but Not Bisphenol A (BPA), Activate the CatSper Ca^2+ Channel in Human Sperm” (Frontiers in Endocrinology, 2020).
# Set-up: method as in PMID 30408212
# Conditions: human serum ref 50; cited from earlier work
row,SMILES,Reported maximal human serum concentration [µM]
1,"CC(C)(c1ccc(OCC2CO2)cc1)c1ccc(OCC2CO2)cc1 (stereo not drawn) [BADGE, Bisphenol A diglycidyl ether]",3.45
2,"Oc1ccc(C(c2ccc(O)cc2)(C(F)(F)F)C(F)(F)F)cc1 [BPAF, Bisphenol AF]",0.05
3,"CCC(C)(c1ccc(O)cc1)c1ccc(O)cc1 [BPB, Bisphenol B]",0.59
